Results as given in patent US20150337021A1.
Results are given in words; binding and its absence hold for the method and conditions named. Some binding calls cover weakened binding; strength is not graded here. Where a sequence is shown, tags or fusion partners need not be part of it.

Amino acid sequences for entries named in this document (tags omitted). A change or cut given only in a name is not applied to a line headed by its entry.
UniProt O75197: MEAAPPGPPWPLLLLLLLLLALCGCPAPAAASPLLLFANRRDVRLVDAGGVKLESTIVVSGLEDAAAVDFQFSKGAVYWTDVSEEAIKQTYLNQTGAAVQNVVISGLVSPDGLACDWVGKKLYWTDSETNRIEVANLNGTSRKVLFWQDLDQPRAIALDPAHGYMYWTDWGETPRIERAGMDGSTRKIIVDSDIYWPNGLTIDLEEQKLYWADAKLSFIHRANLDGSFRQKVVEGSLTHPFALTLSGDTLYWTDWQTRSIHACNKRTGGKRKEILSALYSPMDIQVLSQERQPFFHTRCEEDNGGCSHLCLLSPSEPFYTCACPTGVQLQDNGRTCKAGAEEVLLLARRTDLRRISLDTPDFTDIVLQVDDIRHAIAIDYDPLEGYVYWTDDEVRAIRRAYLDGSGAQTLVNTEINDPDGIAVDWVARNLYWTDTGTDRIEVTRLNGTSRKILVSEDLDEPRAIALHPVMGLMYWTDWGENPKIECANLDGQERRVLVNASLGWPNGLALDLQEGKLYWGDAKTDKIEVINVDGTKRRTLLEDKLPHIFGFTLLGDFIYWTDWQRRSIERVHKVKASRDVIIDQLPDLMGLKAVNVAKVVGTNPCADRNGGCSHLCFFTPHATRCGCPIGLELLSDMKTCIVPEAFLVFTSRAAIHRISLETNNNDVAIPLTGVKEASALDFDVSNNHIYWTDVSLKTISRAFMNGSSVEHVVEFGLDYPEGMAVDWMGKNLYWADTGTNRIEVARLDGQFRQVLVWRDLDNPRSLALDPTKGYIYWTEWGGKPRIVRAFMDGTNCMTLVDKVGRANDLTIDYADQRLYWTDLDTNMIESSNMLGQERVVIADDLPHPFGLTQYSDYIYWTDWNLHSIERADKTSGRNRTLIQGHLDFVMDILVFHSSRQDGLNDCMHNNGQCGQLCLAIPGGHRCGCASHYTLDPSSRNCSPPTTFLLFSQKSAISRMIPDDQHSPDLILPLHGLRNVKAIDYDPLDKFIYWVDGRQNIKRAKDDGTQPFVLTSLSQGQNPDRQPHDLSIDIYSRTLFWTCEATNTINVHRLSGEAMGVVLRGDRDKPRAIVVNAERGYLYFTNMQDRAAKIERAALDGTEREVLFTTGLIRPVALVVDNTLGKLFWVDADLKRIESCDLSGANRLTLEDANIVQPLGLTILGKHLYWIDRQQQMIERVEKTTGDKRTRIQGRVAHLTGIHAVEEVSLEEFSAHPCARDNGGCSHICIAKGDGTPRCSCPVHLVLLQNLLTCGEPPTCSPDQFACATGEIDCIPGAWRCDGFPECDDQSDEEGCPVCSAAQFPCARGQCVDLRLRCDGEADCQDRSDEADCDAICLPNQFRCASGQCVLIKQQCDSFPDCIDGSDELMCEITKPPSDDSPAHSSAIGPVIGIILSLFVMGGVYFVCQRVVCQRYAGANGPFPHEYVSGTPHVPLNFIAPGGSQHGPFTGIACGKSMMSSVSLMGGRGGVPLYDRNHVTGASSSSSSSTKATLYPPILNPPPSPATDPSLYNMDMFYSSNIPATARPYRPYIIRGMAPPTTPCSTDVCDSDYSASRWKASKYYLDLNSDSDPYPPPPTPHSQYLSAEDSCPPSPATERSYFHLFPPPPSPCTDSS
UniProt O75581: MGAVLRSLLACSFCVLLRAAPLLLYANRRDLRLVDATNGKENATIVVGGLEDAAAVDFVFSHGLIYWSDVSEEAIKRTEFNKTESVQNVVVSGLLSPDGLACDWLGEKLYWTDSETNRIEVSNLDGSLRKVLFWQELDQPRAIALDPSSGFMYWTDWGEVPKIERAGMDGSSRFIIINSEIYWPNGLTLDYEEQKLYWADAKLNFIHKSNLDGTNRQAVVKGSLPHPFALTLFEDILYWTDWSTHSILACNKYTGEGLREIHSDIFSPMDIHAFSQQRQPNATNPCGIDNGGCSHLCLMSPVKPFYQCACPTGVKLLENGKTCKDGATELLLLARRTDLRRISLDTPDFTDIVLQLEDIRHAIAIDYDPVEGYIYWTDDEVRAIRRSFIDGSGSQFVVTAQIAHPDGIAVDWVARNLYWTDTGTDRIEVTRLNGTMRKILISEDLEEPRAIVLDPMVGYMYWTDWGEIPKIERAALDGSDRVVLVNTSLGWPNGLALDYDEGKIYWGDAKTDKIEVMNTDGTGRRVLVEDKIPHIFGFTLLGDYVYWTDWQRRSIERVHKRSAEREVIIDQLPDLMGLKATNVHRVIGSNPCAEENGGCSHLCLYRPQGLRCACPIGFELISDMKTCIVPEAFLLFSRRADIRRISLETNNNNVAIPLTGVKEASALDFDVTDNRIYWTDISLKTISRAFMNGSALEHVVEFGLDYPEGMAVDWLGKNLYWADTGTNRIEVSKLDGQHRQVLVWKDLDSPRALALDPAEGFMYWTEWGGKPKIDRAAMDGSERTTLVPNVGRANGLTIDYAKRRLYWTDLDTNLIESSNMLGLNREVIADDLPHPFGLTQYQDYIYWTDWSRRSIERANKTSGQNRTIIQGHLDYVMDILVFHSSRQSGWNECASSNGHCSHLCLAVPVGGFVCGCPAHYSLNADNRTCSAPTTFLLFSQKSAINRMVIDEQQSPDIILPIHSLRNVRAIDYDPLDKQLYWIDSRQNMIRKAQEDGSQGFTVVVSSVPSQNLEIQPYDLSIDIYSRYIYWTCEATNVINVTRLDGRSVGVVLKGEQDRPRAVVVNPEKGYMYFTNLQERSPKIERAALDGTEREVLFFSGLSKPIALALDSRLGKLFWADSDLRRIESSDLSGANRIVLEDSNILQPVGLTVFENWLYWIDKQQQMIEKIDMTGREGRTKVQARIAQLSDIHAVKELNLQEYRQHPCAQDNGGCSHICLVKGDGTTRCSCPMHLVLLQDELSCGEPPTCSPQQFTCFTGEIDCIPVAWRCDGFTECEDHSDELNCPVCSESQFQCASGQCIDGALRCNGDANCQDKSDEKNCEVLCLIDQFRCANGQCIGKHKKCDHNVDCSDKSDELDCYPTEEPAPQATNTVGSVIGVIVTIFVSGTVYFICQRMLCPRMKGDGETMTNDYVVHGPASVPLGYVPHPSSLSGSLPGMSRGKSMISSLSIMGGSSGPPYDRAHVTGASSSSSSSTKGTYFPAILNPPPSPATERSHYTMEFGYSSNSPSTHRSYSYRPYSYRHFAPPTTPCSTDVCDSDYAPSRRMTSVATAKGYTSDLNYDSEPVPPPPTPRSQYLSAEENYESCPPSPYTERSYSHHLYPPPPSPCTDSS

Tests used:
[1] = target: LRP5 (WNT co-receptor, transgenically expressed on HEK293 cells) (Homo sapiens (Human)) (UniProt O75197); assay: fluorescence microscopy; medium (4° C.) with DKK1-GFP on HEK293 cells expressing LRP5
[2] = target: LRP6 (WNT co-receptor, transgenically expressed on HEK293 cells) (Homo sapiens (Human)) (UniProt O75581); assay: fluorescence microscopy; conditioned medium with DKK1-GFP on HEK293 cells overexpressing LRP6
[3] = target: LRP6 (WNT co-receptor, transgenically expressed on HEK293 cells) (Homo sapiens (Human)) (UniProt O75581); assay: fluorescence microscopy; medium (4° C.) with DKK1-GFP on HEK293 cells expressing LRP6
[4] = target: LRP5 (WNT co-receptor, transgenically expressed on HEK293 cells) (Homo sapiens (Human)) (UniProt O75197); assay: fluorescence microscopy; conditioned medium with DKK1-GFP on HEK293 cells overexpressing LRP5

binding [1]: binds | binding [2]: binds | binding [3]: binds | binding [4]: binds
B1: soluble DKK1-GFP fusion protein (ligand, not shown: large carriers)
chain: TLNSVLINSNAIKNLPPPLGGAGGQPGSAVSVAPGVLYEGGNKYQTLDNYQPYPCAEDEECGSDEYCSSPSRGAAGVGGVQICLACRKRRKRCMRHAMCCPGNYCKNGICMPSDHSHFPRGEIEESIIENLGNDHNAAAGDGYPRRTTLTSKIYHTKGQEGSVCLRSSDCAAGLCCARHFWSKICKPVLKEGQVCTKHKRKGSHGLEIFQRCYCGEGLACRIQKDHHQASNSSRLHTCQRH
